# “And” between values parts separate entries of the source, which are not always exact repeats. Identical values can stand only once. Hit rate of the full screen: of about 320,000 compounds, about 22,000 (6.9%) were called active. The inconclusive results got no clear call from the source; some entries with a clear call stand among them for comparison. Calls follow the shape of the dose curve; as a rule, active = well fitted inhibition curve with a large enough effect; inconclusive = small, poorly fitted or top-dose-only effect, or another doubt; inactive = no such curve, though single readings can be large or run the other way. Potencies beside an inconclusive call are fits to weak or partial responses and may not hold up.
# Assay: Primary qHTS for delayed death inhibitors of the malarial parasite plastid, 96 hour incubation
# Settings: P. falciparum luciferase reporter growth; series mostly up to 28.7 µM
# Outline: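 Two-generation exposure (96 h) targets delayed-death phenotype. Reporter parasites carrying integrated firefly luciferase, in red cells at 2% hematocrit and 0.05% parasitemia final, kept at 37 C, 5% CO2; luminescence loss indicates inhibition.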
# % is scaled to controls: 0 for no effect and ±100 for the full control effect; potency is read from the fitted curve at half-maximal effect.
Compound,Potency,"activity change, negative = inhibition"
N=C1/C(=C/c2ccco2)C(=O)N=C2SC(CC(=O)N3CCCC3)=NN12,inactive,–
Cc1cnc(C(=O)Nc2ccccc2-n2cccc2)cn1,active: 11.7 µM,–
COc1cc(CO)ccc1OCc1nnnn1-c1ccc(C)cc1,"inconclusive: 14.7 µM [inhibitor, single point]",–
CCc1ccccc1NC(=O)Nc1cccc(F)c1,–,inactive: 34.6% [at 1.15 µM]
COc1ccccc1CNCC(=O)Nc1cc(S(=O)(=O)N2CCOCC2)ccc1Cl,"inconclusive: 13.1 µM [inhibitor, single point]",–
Cc1cc(C)n(CC(O)CN2c3ccccc3Sc3ccccc32)n1 (configuration not stated),"inconclusive: 0.0738 µM [inhibitor, full curve, poor fit]",–
O=C(Nc1ccc2c(c1)nc1n2CCCCC1)c1cc(S(=O)(=O)N2CCOCC2)ccc1Cl,"inconclusive: 18.5 µM [inhibitor, single point]",–
Cc1ccc(NC(=O)C2CCN(S(=O)(=O)c3ccc(Cl)c(C(F)(F)F)c3)CC2)nc1,"inconclusive: 18.5 µM [inhibitor, single point]",–
CC1=NOC(=O)/C1=C\c1ccc(-c2ccccc2Br)o1,active: 14.7 µM,–
COc1ccc(C2(c3ccc(OC(C)=O)cc3OC(C)=O)CC(c3ccccc3)NC(=S)N2)cc1 (configuration not stated),"inconclusive: 1.65 µM [inhibitor, full curve, poor fit]",–
CCc1nc(NCCCCCO)c2nnn(Cc3ccccc3F)c2n1,inactive,–
CC(=O)c1ccc(OCC(O)CN(C)Cc2cccs2)cc1 (configuration not stated),inactive,–
CCCCCCCOC(=O)c1nc(Cl)c(Cl)c(N)c1Cl,"inconclusive: 10.4 µM [inhibitor, single point]",–
C=CCN1C(=O)C(Cc2ccc(OCC)cc2)S/C1=N\N=C\c1cccs1 (configuration not stated),"inconclusive: 18.5 µM [inhibitor, single point]",–
COc1ccc(Cl)cc1NC(=O)CSc1nc(=O)n(CCN(C)C)c2c1CCCC2,"inconclusive: 13.1 µM [inhibitor, partial curve, poor fit]",–
COc1ccccc1NC(=O)C(C)OC(=O)C1CCC(C(C)(C)C)CC1 (configuration not stated),active: 14.7 µM,–
Cc1ccc(N2CCN(C3=NC(=O)/C(=C\c4cccs4)S3)CC2)cc1,"inconclusive: 11.7 µM [inhibitor, single point]",–
COc1cc([N+](=O)[O-])cc(/C=N/NC(=O)CSc2nnc(-c3ccccc3)n2C)c1O,inactive,–
Cc1cccc(NC(=O)CNC(=O)Cc2ccc(S(=O)(=O)N3CCOCC3)s2)c1C,inactive,–
S=C(c1ccc(-c2cc(Cl)ccc2Cl)o1)N1CCOCC1,inactive,–
CC1CCN(C(=O)Cn2nnnc2CN2CCOCC2)CC1,inactive,–
COc1ccc(OC2C(=O)N(c3ccc(C)c(C)c3)C2c2ccc(OC)c(OC)c2)cc1 (configuration not stated),"inconclusive: 6.57 µM [inhibitor, partial curve, poor fit]",–
O=C(COC(=O)c1cnccn1)NCc1ccc2c(c1)OCO2,inactive,–
C=CCn1c(NS(=O)(=O)c2ccccc2)c(S(=O)(=O)c2ccc(C)cc2)c2nc3ccccc3nc21,"inconclusive: 13.1 µM [inhibitor, single point]",–

Compound,Potency,"activity change, negative = inhibition"
O=C(N/N=C/c1coc2ccccc2c1=O)c1cc(Br)c(O)c(Br)c1,"inconclusive: 13.1 µM [inhibitor, single point]",–
O=C(NCc1ccc(Cl)cc1)c1ccc(CNc2c(N3CCCC3)c(=O)c2=O)cc1,"inconclusive: 8.28 µM [inhibitor, partial curve, poor fit]",–
O=S1(=O)CC(O)C(NCCO)C1 (configuration not stated),inactive,–
O=C(CC1OC(=O)c2ccccc21)Nc1cc(Cl)ccc1N1CCCC1 (configuration not stated),inactive,–
CC(CCc1ccccc1)NC(=O)N1CCOCC1 (configuration not stated),active: 10.4 µM,–
Cc1ccc(C(=O)N(C)CCOc2ccccc2)cc1S(=O)(=O)N1CCCCC1,"inconclusive: 0.262 µM [inhibitor, full curve]",–
COc1ccc(C)cc1NC(=O)CSc1ccc(-c2cccnc2)nn1,"inconclusive: 0.294 µM [inhibitor, partial curve, poor fit]",–
O=C(NCCCN1CCCC1=O)c1cccc(S(=O)(=O)N2CCN(c3ccccc3)CC2)c1,"inconclusive: 5.86 µM [inhibitor, partial curve]",–
Cc1c(-c2ccc(Br)cc2)[n+](=O)c2c(n1[O-])CCCCC2,"inconclusive: 0.0033 µM [inhibitor, full curve, poor fit]",–
COc1cccc(/C=N/NC(=O)c2cnn(-c3ccccc3)c2N)c1,inactive,–
CN(Cc1ccccc1)S(=O)(=O)c1ccc(OCC(=O)NCc2ccccn2)cc1,"inconclusive: 4.15 µM [inhibitor, partial curve]",–
CCCCC1=NN2C(=N)CC(=O)N=C2S1,"inconclusive: 18.5 µM [inhibitor, single point]",–
CCOC(=O)C1CCCN(CCCc2ccccc2)C1 (configuration not stated),active: 3.29 µM,–
Cc1ccc(OCC(=O)N/N=C/c2cccnc2)cc1,inactive,–
Fc1ccc(CNCC2CCCO2)cc1 (configuration not stated),"inconclusive: 18.5 µM [inhibitor, single point]",–
Nc1nc(NCCCN2CCOCC2)nc(NCc2ccccc2)c1[N+](=O)[O-],"inconclusive: 7.38 µM [inhibitor, partial curve, poor fit]",–
CN1CCC(=C2c3ccccc3C(O)c3ccccc32)CC1 (configuration not stated),"inconclusive: 18.5 µM [inhibitor, partial curve, poor fit]",–
COC(=O)C1=C(SC)N(c2ccc(OC)cc2)C(c2ccccc2)CC1=O (configuration not stated),"inconclusive: 0.928 µM [inhibitor, full curve]",–
COc1ccc(S(=O)(=O)NCC(c2ccco2)N2CCOCC2)cc1 (configuration not stated),inactive,–
CC(NC(=O)CN1c2cccc3cccc(c23)S1(=O)=O)c1ccc(S(N)(=O)=O)cc1 (configuration not stated),inactive,–
COCc1cc(C)nc(SCC(=O)Nc2cccc(C)c2C)c1C#N,"inconclusive: 0.0738 µM [inhibitor, full curve, poor fit]",–
CCOC(=O)c1c(NC(=O)COC(=O)c2ccccc2NC)sc(C(=O)N(C)C)c1C,active: 5.22 µM,–
Cn1c(=O)cc(OCC(=O)NCCCN2CCN(c3cccc(Cl)c3)CC2)c2ccccc21,active: 11.7 µM,–
COc1ccc(C(=O)NCCCn2cccn2)cc1OC1CCN(C(C)=O)CC1,"inconclusive: 20.8 µM [inhibitor, partial curve, poor fit]",–

Compound,Potency,"activity change, negative = inhibition"
CC(C)c1ccc(NC(=O)CSc2n[nH]c(=O)n2Cc2ccco2)cc1,active: 13.1 µM,–
Cc1ccc(NC(=O)CSc2nc(=O)n(CCN(C)C)c3c2CCCC3)c(C)c1,"inconclusive: 18.5 µM [inhibitor, single point]",–
O=C(NCc1ccco1)c1cccc(Br)c1,"inconclusive: 0.0165 µM [inhibitor, full curve, poor fit]",–
CCCN1CCCc2ccccc21,"inconclusive: 2.94 µM [inhibitor, full curve, poor fit]",–
O=C(O)COc1ccc(C(=O)c2cccs2)c(Cl)c1Cl,active: 3.38 µM and active: 3.79 µM,–
Cc1ccc(-c2csc(N3CCN(CCCn4c(C(F)(F)F)nc5ccccc54)CC3)n2)cc1,"inconclusive: 2.33 µM [inhibitor, single point]",–
O=C(NCc1ccc(S(=O)(=O)Nc2ccccc2Cl)s1)c1ccccc1,inactive,–
O=C(Nc1nc2ccccc2n1CCOc1ccc(Cl)cc1)c1ccco1,"inconclusive: 0.262 µM [inhibitor, full curve, poor fit]",–
Cc1cc(C)c(C(N)=O)c(NCCc2ccccc2)n1,"inconclusive: 8.28 µM [inhibitor, partial curve, poor fit]",–
O=C(N/N=C/c1ccccc1OC(F)F)NC1CCCCC1,"inconclusive: 18.5 µM [inhibitor, single point]",–
COc1ccc(NC(=O)C2CCN(c3cnccn3)CC2)cc1OC,inactive,–
O=C(c1ccccc1)C(c1ccccc1)c1ccccc1,"inconclusive: 10.4 µM [inhibitor, single point]",–
CCCCOc1ccc(C(=O)CCN2CCCCC2)cc1,inactive,–
Cc1ccc(C(=O)N2c3ccccc3N(Cc3ccccc3)C(=O)C2(C)C)cc1,active: 7.38 µM,–
CC1CCN(CCc2nc3cc(NC(=O)COc4ccccc4)ccc3n2C)CC1,"inconclusive: 18.5 µM [inhibitor, single point]",–
Cc1ccc(-n2ncc3c2CCCC3NC(=O)CCc2cnn(C)c2)cc1C (configuration not stated),"inconclusive: 0.0037 µM [inhibitor, full curve, poor fit]",–
NS(=O)(=O)c1ccc2nc(NC(=O)c3ccncc3)sc2c1,"inconclusive: 4.15 µM [inhibitor, partial curve, poor fit]",–
Cc1nn(Cc2ccc(F)cc2)c2sc(C(=O)Nc3nccs3)cc12,"inconclusive: 2.94 µM [inhibitor, single point]",–
O=C(N/N=C/c1c[nH]c2ccc(Br)cc12)c1ccccn1,"inconclusive: 2.08 µM [inhibitor, single point]",–
Cc1nc(C(C)NC(=O)CCc2nnc(-c3ccsc3)o2)cs1 (configuration not stated),"inconclusive: 16.5 µM [inhibitor, single point]",–
COC(C(=O)N/N=C(\C)CC(=O)Nc1ccc(Cl)cc1C)c1ccccc1 (configuration not stated),"inconclusive: 1.47 µM [inhibitor, full curve, poor fit]",–
Cc1cc2ncn(/N=C/c3ccc4c(c3)OCO4)c2cc1C,inactive,–
Cc1c(C(=O)NCc2ccc(F)cc2)c(-c2ccccc2)nn1-c1ccccc1,active: 5.86 µM,–
COc1nc(N)c(S(=O)(=O)c2ccccc2)cc1C#N,"inconclusive: 10.4 µM [inhibitor, single point]",–

# Source: PubChem BioAssay AID504834 (National Center for Advancing Translational Sciences (NCATS), 2011)
